This note sets out measurements from PMC12115080.

Chains of the proteins cited; added tags and fusions are not shown. Lines headed by an entry give the natural chain unless they say otherwise; changes in a name come on top.
UniProt O22764: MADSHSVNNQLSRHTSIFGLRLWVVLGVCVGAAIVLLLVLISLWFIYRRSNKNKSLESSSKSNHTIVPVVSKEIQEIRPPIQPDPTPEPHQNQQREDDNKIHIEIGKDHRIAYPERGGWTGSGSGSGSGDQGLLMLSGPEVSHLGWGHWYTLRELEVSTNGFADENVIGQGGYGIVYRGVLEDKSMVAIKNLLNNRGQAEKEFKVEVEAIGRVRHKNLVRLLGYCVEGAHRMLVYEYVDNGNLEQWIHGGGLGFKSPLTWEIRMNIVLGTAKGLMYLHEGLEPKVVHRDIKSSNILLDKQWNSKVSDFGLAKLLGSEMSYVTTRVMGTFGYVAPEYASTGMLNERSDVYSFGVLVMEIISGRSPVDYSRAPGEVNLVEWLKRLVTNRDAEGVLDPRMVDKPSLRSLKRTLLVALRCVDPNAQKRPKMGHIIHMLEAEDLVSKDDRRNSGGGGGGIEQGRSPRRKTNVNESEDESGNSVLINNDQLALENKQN

Results are given in words; binding and its absence hold for the method and conditions named. Binding seen in cells or lysates may run through a third protein. Binding calls can cover weak binding; strength is not graded here. Sequences can lack the tags named with a protein.

This assay addresses T1, AtBIK1 fused to the N-terminal fragment of YFP (Arabidopsis thaliana) (UniProt O48814).
T1 sequence: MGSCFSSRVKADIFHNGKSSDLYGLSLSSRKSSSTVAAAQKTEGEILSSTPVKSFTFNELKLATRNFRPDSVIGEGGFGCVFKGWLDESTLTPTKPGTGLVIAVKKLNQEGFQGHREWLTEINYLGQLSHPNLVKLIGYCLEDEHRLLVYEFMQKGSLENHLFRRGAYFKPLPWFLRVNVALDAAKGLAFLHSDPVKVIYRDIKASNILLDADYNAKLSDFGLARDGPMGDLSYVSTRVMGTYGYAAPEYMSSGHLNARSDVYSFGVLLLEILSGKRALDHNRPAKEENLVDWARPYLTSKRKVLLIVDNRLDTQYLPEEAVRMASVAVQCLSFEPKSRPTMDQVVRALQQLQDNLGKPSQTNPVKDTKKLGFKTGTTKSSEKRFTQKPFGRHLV
The assay can be described thus: split reporter; BiFC: RLCKs fused with YFPc co-infiltrated into Nicotiana benthamiana leaves with AtBIK1 fused to YFPn; YFP fluorescence by confocal microscopy 48 h after infiltration.

On to “At4g02630 fused with the C-terminal fragment of YFP (from UniProt O22764)”, for which the binding entry is listed as “binds”.
